Some of the results follow.

The chains behind the UniProt entries cited, without tags or fusion partners. Where a name states a change or a piece, a line headed by the entry shows the natural chain unless it says otherwise.
UniProt Q9H8H3: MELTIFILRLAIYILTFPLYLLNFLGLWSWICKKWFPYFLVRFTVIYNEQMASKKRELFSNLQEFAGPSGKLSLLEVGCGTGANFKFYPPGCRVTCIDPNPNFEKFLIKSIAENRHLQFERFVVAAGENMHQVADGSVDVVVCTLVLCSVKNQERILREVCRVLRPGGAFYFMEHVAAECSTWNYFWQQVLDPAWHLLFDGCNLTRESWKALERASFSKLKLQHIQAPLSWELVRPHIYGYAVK
UniProt Q00987, whole entry, looked up: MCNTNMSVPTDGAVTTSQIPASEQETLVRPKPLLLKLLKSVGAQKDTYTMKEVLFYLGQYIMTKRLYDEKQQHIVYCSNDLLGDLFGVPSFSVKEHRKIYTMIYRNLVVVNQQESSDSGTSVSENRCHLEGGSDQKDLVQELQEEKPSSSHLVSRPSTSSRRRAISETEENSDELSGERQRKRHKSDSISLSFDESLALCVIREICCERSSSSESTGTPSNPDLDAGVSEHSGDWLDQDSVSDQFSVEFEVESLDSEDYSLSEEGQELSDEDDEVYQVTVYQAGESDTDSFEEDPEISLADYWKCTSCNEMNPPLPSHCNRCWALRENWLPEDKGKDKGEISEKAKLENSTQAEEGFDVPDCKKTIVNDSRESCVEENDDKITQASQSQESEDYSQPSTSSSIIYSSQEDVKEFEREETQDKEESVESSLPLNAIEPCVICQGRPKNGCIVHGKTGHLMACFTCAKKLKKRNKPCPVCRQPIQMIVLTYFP
UniProt Q8NI22: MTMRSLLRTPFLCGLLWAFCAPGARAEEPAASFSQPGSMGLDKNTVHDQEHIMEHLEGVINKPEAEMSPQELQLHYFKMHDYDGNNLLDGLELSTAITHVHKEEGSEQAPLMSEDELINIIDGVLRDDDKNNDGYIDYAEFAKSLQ
UniProt Q6ZNC8: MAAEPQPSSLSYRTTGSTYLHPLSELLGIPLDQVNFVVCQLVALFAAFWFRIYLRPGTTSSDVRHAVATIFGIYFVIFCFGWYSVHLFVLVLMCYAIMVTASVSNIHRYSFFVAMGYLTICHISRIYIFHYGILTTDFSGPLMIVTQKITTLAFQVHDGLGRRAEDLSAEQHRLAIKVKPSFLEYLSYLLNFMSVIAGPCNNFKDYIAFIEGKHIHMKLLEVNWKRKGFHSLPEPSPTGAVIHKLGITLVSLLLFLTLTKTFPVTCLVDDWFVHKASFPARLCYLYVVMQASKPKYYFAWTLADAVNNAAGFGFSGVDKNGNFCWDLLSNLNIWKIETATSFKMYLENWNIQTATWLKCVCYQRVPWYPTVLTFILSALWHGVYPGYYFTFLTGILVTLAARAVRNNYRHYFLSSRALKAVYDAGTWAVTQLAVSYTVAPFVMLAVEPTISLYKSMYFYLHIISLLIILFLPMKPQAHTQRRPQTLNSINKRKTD
UniProt Q71F56: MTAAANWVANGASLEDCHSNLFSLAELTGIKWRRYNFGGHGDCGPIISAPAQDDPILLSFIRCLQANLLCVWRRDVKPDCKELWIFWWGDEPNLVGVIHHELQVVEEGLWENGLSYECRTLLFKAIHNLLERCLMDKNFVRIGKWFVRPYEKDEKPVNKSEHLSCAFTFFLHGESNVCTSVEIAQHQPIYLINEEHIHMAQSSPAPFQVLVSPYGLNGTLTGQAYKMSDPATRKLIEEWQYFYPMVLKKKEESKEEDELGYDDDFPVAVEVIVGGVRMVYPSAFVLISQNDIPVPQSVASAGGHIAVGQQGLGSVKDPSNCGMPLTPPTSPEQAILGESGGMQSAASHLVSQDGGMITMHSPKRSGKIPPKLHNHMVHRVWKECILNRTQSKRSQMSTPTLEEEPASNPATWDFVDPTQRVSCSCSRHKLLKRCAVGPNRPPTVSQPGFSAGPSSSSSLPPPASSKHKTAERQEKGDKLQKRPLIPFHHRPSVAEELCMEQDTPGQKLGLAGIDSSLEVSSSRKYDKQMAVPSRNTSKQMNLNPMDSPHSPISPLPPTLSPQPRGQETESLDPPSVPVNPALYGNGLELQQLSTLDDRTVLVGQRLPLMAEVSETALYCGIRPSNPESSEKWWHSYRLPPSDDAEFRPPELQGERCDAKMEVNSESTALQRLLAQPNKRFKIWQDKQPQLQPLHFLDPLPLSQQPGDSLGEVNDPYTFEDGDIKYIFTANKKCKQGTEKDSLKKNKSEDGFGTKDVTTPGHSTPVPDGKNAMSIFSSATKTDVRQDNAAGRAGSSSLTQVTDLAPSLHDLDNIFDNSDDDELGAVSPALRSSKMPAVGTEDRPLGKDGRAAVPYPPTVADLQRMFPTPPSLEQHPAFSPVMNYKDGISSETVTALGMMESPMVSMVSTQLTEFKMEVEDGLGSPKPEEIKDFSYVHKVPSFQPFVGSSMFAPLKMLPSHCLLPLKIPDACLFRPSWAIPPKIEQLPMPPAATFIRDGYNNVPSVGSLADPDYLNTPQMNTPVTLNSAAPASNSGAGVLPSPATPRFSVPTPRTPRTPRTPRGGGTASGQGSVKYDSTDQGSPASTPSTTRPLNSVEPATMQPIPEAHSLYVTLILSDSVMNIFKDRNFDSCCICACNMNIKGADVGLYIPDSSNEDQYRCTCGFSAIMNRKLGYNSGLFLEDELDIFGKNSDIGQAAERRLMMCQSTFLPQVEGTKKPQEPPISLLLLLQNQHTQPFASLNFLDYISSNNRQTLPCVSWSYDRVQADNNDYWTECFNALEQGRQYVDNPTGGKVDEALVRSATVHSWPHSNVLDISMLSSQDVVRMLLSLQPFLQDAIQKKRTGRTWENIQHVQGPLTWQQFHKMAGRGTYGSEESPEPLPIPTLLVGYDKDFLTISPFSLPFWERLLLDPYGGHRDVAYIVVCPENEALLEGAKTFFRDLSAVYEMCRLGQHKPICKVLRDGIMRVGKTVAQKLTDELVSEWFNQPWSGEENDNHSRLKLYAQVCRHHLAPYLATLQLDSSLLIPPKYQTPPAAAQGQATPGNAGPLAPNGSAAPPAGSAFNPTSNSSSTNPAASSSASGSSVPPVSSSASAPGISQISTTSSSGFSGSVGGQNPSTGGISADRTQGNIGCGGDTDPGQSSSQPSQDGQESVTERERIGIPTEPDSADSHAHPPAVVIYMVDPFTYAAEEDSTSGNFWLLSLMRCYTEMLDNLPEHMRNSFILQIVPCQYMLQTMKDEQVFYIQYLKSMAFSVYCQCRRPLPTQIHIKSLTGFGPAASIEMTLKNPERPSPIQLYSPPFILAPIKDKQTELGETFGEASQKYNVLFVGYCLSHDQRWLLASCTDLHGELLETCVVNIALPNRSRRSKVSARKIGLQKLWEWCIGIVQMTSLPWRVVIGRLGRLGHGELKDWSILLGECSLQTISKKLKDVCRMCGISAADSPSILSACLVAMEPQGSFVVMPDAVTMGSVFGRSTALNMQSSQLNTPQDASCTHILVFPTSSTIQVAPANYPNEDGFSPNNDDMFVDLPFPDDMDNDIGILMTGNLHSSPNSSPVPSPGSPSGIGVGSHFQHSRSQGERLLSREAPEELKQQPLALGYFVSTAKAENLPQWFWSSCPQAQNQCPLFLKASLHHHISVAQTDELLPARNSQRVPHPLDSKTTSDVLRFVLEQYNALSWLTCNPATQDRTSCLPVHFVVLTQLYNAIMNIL
UniProt Q8NHS3: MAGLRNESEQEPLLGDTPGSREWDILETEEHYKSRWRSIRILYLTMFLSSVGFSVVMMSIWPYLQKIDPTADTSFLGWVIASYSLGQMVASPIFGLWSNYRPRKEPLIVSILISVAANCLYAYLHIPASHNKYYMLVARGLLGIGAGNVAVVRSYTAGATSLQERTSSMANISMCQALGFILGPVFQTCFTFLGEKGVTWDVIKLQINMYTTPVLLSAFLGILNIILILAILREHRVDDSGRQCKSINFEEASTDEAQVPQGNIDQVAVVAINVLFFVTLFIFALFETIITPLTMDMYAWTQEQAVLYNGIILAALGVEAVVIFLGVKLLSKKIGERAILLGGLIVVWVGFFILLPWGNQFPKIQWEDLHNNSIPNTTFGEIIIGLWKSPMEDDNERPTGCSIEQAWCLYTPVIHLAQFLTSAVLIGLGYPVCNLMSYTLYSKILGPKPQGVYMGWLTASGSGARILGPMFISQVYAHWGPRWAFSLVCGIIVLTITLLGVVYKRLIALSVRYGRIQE
UniProt Q9NRN9: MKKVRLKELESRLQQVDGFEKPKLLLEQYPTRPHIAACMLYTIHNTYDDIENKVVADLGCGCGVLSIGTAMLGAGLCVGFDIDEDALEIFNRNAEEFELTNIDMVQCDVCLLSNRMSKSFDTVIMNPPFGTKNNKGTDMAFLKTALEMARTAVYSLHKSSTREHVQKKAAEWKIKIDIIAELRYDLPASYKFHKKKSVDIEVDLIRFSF
UniProt Q02078: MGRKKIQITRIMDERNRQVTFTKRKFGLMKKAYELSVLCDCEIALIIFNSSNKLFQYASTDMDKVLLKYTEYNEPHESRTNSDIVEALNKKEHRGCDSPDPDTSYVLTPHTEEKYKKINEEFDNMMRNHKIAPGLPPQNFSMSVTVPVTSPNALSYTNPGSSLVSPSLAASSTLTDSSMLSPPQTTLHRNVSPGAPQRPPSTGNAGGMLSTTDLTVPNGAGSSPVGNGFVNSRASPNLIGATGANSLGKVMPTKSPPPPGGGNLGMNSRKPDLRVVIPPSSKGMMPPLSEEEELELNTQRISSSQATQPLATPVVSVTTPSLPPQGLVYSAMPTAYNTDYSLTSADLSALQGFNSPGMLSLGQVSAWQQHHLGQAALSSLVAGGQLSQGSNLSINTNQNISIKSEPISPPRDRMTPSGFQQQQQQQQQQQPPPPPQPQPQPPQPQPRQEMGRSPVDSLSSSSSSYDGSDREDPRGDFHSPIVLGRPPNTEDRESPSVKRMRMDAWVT
UniProt Q15528: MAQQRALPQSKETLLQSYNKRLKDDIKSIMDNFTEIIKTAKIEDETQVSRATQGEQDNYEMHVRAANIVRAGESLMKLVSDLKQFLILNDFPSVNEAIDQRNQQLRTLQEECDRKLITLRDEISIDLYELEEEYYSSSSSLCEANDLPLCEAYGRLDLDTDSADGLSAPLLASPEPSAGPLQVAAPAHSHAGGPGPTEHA
UniProt Q9Y4C4: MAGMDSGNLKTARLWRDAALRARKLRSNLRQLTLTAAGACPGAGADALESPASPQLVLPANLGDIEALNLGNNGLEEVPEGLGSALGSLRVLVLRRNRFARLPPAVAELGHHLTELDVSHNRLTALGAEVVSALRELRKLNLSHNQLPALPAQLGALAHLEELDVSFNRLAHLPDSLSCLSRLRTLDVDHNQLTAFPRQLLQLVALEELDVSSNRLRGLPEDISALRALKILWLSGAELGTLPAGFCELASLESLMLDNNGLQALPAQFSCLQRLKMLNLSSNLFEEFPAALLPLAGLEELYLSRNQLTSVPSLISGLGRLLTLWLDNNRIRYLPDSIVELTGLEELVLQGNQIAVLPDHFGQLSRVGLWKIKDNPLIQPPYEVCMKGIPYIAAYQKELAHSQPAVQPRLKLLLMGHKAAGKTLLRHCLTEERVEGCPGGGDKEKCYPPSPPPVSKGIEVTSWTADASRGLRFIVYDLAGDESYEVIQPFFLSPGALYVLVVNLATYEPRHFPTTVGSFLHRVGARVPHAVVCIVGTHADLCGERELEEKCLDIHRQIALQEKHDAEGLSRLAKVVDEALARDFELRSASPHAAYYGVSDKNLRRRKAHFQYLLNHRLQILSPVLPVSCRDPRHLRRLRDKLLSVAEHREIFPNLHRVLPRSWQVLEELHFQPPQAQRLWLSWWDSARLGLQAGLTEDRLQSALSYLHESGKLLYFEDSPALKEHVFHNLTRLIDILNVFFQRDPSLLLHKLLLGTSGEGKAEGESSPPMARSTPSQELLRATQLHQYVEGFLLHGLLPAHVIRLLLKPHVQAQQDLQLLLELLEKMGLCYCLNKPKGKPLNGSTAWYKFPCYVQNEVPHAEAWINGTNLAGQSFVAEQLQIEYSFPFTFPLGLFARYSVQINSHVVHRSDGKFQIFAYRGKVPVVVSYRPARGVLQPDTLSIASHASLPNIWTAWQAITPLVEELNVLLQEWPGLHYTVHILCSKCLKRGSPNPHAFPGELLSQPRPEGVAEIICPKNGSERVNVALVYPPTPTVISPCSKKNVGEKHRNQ
UniProt Q6NUT3: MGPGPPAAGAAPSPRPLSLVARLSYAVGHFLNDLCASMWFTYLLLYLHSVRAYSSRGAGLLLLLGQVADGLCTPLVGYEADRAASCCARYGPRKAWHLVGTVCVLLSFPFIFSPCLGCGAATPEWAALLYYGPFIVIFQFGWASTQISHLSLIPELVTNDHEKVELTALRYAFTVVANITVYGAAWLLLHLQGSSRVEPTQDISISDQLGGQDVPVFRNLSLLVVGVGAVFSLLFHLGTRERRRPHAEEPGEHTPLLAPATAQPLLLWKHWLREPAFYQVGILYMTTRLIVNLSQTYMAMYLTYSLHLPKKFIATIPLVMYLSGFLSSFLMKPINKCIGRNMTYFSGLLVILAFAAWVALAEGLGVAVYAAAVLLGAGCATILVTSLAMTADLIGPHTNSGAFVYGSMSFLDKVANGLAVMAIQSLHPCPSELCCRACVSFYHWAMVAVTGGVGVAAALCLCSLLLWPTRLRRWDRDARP

Experimental findings from the supplement of paper PMC10849652 are described below.

Compound in the experiment: C1=CC2=C(C=CC(=C2)/C=C\3/C(=O)NC(=NCC4=CC=CS4)S3)N=C1
The experiment is described as follows: log2 fold change, soluble protein after heating vs DMSO (PISA); higher = thermal stabilisation; K562 lysate, 10 uM; active = over 0.2 and 3.5 SD of the protein, either way, in both replicates (recomputed). The method, boiled down: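 Following dounce homogenisation of K562 pellets in PBS pH 7.4 with 1 mM MgCl2, crude extract at 1 mg/mL protein was incubated for 30 min with 10 μM compound. Aliquots were then heated for 3 min over 48°C-58°C and pooled, NP-40 was added to 0.5% at 4°C, and soluble protein was recovered as the supernatant at 21,000xg for 90 min. Channel-sum-equalised TMTpro 16plex LC-MS/MS quantified this protein. Each value, from duplicates, is a log-two fold change in thermal stability relative to solvent controls.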
Take METTL7A (UniProt Q9H8H3): the log2 fold change is inactive: 0.008. In the case of MCM10 (UniProt Q7L590) it was inactive: -0.042; in that of MDM2 isoform 11 (UniProt Q00987), inactive: -0.071; in that of MCFD2 (UniProt Q8NI22), inactive: 0.077.

Regarding MCM5 (UniProt P33992), the log2 fold change was inactive: 0.001. In the case of MBOAT1 (UniProt Q6ZNC8) it was inactive: 0.122. With MED13L (UniProt Q71F56), the log2 fold change was inactive: 0.024. As for MCOLN1 (UniProt Q9GZU1), the figure is inactive: -0.055. As for MBLAC1 (UniProt A4D2B0), the figure is inactive: -0.071.

Take METTL14 (UniProt Q9HCE5): the log2 fold change was inactive: -0.02. As to MELK (UniProt Q14680), the log2 fold change was inactive: -0.002. In the case of MED12 isoform 2 (UniProt Q93074) it was inactive: 0.009. On to METTL16 (UniProt Q86W50), for which the log2 fold change was inactive: 0.001. As for MFSD8 (UniProt Q8NHS3), the figure is inactive: 0.022. In the case of METTL5 (UniProt Q9NRN9) it was inactive: -0.018. In the case of MED20 (UniProt Q9H944) it was inactive: 0.003; in that of MCM3AP (UniProt O60318), inactive: 0.003. Regarding MED14 (UniProt O60244), the log2 fold change is inactive: 0.027. In the case of MEF2A isoform 2 (UniProt Q02078) it was inactive: 0.079. In the case of MED22 isoform 2 (UniProt Q15528) it was inactive: -0.004; in that of MFHAS1 (UniProt Q9Y4C4), inactive: 0.148. In the case of MFSD12 isoform 3 (UniProt Q6NUT3) it was inactive: 0.005.
